# Measured values taken from PubChem BioAssay AID2685 (National Center for Advancing Translational Sciences (NCATS), 2010).
# The list shows a part of the results. Shown are side measurements of this screen, not its main read-out; they come without a call. The list favours compounds with an active or inconclusive main result. The note in brackets gives the kind of curve behind each potency; many fits are weak.
# Experiment: qHTS Assay for Lipid Storage Modulators in Drosophila S3 Cells;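 on cell number change: cells counted by Cell Tracker Red CMTPX staining in the red channel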
# Settings: BODIPY lipid droplet fluorescence, 18-24 h; for cell number change: measured here: cell count max response, cells fed with added oleic acid
# How it was run: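 Drosophila S3 cells loaded with oleic acid (400 uM, as added) and compounds at several concentrations; lipid droplets imaged by 488-nm laser-scanning cytometry, 500–530 nm intensity and object ratio to cell channel. Percent activity normalized to 20 uM Triacsin C.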
# [1] = measured here: lipid fluorescence (Fed channel) AC50, cells fed with added oleic acid
# [2] = measured here: cell number channel AC50, cells fed with added oleic acid
structure (smiles),measurement,setting,value
CC1CCCCN1C(=O)CCS(=O)(=O)Cc1ccccc1 (stereo not drawn),cell number change,,22.1%
CC(C)c1nnc(NC(=O)c2cnccn2)s1,cell number change,,-5.17%
same,AC50,[1],"0.58 µM [falling, single point]"
COc1ccc(-c2nnc(CSc3nnc(-c4ccncc4)n3C3CCCCC3)o2)cc1OC,cell number change,,9.55%
same,AC50,[1],"0.326 µM [rising, single point]"
CCOC(=O)CSc1nc2c(c(=O)[nH]1)C(C)(CC)Cc1ccccc1-2 (stereo not drawn),cell number change,,-30.8%
same,AC50,[2],"29.1 µM [falling, single point]"
same,AC50,[1],"16.4 µM [falling, single point]"
COc1ccc(CC(=O)Nc2ccc(OC)nc2)cc1,cell number change,,5.68%
CC(C)C[C@H](NC(=O)c1nc[nH]c1C(=O)NC1CCNCC1)C(=O)OCc1ccccc1,cell number change,,-19.1%
same,AC50,[2],"0.00517 µM [falling, full curve, poor fit]"
same,AC50,[1],"0.00461 µM [falling, full curve, poor fit]"
COc1cc(/C(C)=N/NC(=O)C(O)(c2ccccc2)c2ccccc2)ccc1O,cell number change,,-37.5%
same,AC50,[2],"0.461 µM [falling, full curve]"
same,AC50,[1],"0.58 µM [falling, full curve]"
CCC(=O)Nc1ccc(-c2nc3ccccc3c(=O)o2)cc1,cell number change,,5.35%
same,AC50,[2],"1.64 µM [falling, single point]"
O=[N+]([O-])c1cccc(/C=N/Nc2nc(NCc3ccccc3)nc(N3CCOCC3)n2)c1,cell number change,,23.5%
same,AC50,[2],"1.84 µM [rising, full curve, poor fit]"
same,AC50,[1],"0.58 µM [rising, full curve]"
Cc1nc2nc(SCC(=O)NCCCN3CCCCCC3)nn2c(C)c1Cc1ccccc1,cell number change,,-3.81%
O=C1CC(Nc2ccccc2)C(=O)N1Cc1ccccc1 (stereo not drawn),cell number change,,31.6%
same,AC50,[2],"7.31 µM [rising, partial curve]"
same,AC50,[1],"2.06 µM [falling, partial curve]"
CC(=O)c1cc2c(cc1NC(=O)CN1Cc3ccccc3C1=O)OCO2,cell number change,,19.8%
CCS(=O)(=O)N1CCC(C(=O)NCCN2CCN(Cc3ccccc3)CC2)CC1,cell number change,,-9.74%
O=C(CN1CCN(C(=O)N2CCOCC2)CC1)Nc1ccc(Br)cc1,cell number change,,-3.76%
O=C(CN1CCN(Cc2ccc(F)cc2Cl)C1=O)NCCc1ccc(Cl)cc1,AC50,[1],"6.51 µM [falling, single point]"
CC(=O)Nc1cccc(C(=O)OCc2ccccc2)c1,cell number change,,-58.8%
same,AC50,[2],"29.1 µM [falling, single point]"
O=C(COc1ccc(Cl)cc1Cl)Nc1ccccc1NS(=O)(=O)c1cccs1,cell number change,,-39.9%
same,AC50,[2],"29.1 µM [falling, single point]"
same,AC50,[1],"29.1 µM [falling, partial curve, poor fit]"

# Reprinted at random: 2 entries already listed.
structure (smiles),measurement,setting,value
O=C1CC(Nc2ccccc2)C(=O)N1Cc1ccccc1 (stereo not drawn),cell number change,,31.6%
CC(C)C[C@H](NC(=O)c1nc[nH]c1C(=O)NC1CCNCC1)C(=O)OCc1ccccc1,cell number change,,-19.1%
